Measured values from patent publication US20260325473A1, “N-Beta-Hydroxybutyryl-Amino Acids and Related Compositions and Methods” (The Board of Trustees of the Leland Stanford Junior …, priority 2023, published 2026).

Assay: Metabolite quantitation in mouse plasma (QQQ-LC/MS)
Format: in vivo
Conditions: MRM
Method: Preparation of plasma samples for LC-MS analysis. Plasma was collected from mice via a submandibular bleed into lithium heparin tubes (BD, 365985) and immediately transferred onto ice. The blood was centrifuged at 4° C. at 5000 rpm for 5 min and the top layer of plasma was aliquoted and frozen at −80 °C. To extract polar metabolites from plasma for LC-MS analysis, 150 μl of a 2:1 mixture of acetonitrile/methanol was added to 50 μl of plasma. The mixture was centrifuged at 4° C. for 10 min at 15,000 rpm and the supernatant was transferred to a LC-MS vial.
Targeted metabolomics. Targeted measurements were performed using an Agilent 6470 triple quadrupole LC-MS instrument. MS analysis was performed using AJS in negative mode. […] Quantification of the endogenous metabolite concentrations were performed by generating a standard curve with known concentrations of each metabolite. Metabolite standards were analyzed alongside the plasma samples using the same targeted triple quadrupole LC/MS method. […] The dilution of the plasma during the sample preparation was also taken into account for the quantification.

Row | SMILES | endogenous presence in mouse plasma
1 | CCC(O)C(=O)N[C@@H](Cc1ccccc1)C(=O)O (some centres unmarked) [2-HB-Phe] | not endogenous metabolites
2 | CC(CO)C(=O)N[C@@H](Cc1ccccc1)C(=O)O (some centres unmarked) [3-HIB-Phe] | not endogenous metabolites
